Part of at least one peptide drawing is inferred or uncertain, most often the ends.
Key:
HLA-DR2 = conditions: for pH of maximum binding to DR2 among position 83 replaced MBP peptides: pH 5-10 binding buffer, FIG. 2
[1] = system: DR2.MPB(84-102) restricted transformed T cell clone (SS8T); test: TCR occupancy assay, gamma-IFN release upon TCR engagement; type: cell-based, human; conditions: purified HLA-DR2-peptide complexes, equivalent amounts; compared with MBP(84-102) complex; all concentrations; FIG. 5

| SMILES | pH of maximum binding to DR2 among position 83 replaced MBP peptides (HLA-DR2) | binding to purified DR2 at various pH (HLA-DR2; compared with MBP(84-102), pH 5-10, 50-fold molar excess peptide, 72 hours, 37° C., FIG. 1) | percent of DR2 occupied with bound peptide (HLA-DR2; pH 6, purified HLA-DR2, FIG. 3) | level of gamma-IFN released by T cells [1] |
| --- | --- | --- | --- | --- |
| CC[C@H](C)[C@H](NC(=O)[C@H](CC(N)=O)NC(=O)[C@H](CCCCN)NC(=O)[C@H](Cc1ccccc1)NC(=O)[C@H](Cc1ccccc1)NC(=O)[C@H](Cc1c[nH]cn1)NC(=O)[C@@H](NC(=O)[C@@H](NC(=O)[C@@H]1CCCN1C(=O)[C@H](CC(N)=O)NC(=O)[C@H](CCC(=O)O)NC(=O)[C@H](CC(=O)O)NC(=O)[C@H](C)NC(=O)CCCC[C@@H]1SC[C@@H]2NC(=O)N[C@@H]21)C(C)C)C(C)C)C(=O)N[C@H](C(=O)N[C@H](C(=O)N1CCC[C@H]1C(=O)N[C@@H](CCCNC(=N)N)C(=O)N[C@H](C(=O)N1CCC[C@H]1C(=O)N1CCC[C@H]1C(N)=O)[C@@H](C)O)[C@@H](C)O)C(C)C [MBP(83-102)A83, Bt-ADENPVVHFF KNIVTPRTPP-NH2] | maximum binding at around acidic pH | – | – | – |
| CC[C@H](C)[C@H](NC(=O)[C@H](CC(N)=O)NC(=O)[C@H](CCCCN)NC(=O)[C@H](Cc1ccccc1)NC(=O)[C@H](Cc1ccccc1)NC(=O)[C@H](Cc1c[nH]cn1)NC(=O)[C@@H](NC(=O)[C@@H](NC(=O)[C@@H]1CCCN1C(=O)[C@H](CC(N)=O)NC(=O)[C@H](CCC(=O)O)NC(=O)[C@H](CC(=O)O)NC(=O)[C@H](Cc1ccc(O)cc1)NC(=O)CCCC[C@@H]1SC[C@@H]2NC(=O)N[C@@H]21)C(C)C)C(C)C)C(=O)N[C@H](C(=O)N[C@H](C(=O)N1CCC[C@H]1C(=O)N[C@@H](CCCNC(=N)N)C(=O)N[C@H](C(=O)N1CCC[C@H]1C(=O)N1CCC[C@H]1C(N)=O)[C@@H](C)O)[C@@H](C)O)C(C)C [MBP(83-102)Y83, Bt-YDENPVVHFF KNIVTPRTPP-NH2] | maximum binding at around acidic pH | higher at all pH | maximum binding | increased level of gamma-IFN |
